Data taken from paper PMC13245411.
These are yes or no findings as the source states them, for the method shown. In cells and extracts the contact can be indirect. Some binding calls cover weakened binding; strength is not graded here. For some assays here: Sequences can lack the tags named with a protein.

Chains of the proteins cited; added tags and fusions are not shown. Lines headed by an entry give the natural chain unless they say otherwise; changes in a name come on top. A line that says so, or that is headed by a name, gives the form on record, which may keep a tag or linker. Residues count along the entry.
UniProt Q5VXU9: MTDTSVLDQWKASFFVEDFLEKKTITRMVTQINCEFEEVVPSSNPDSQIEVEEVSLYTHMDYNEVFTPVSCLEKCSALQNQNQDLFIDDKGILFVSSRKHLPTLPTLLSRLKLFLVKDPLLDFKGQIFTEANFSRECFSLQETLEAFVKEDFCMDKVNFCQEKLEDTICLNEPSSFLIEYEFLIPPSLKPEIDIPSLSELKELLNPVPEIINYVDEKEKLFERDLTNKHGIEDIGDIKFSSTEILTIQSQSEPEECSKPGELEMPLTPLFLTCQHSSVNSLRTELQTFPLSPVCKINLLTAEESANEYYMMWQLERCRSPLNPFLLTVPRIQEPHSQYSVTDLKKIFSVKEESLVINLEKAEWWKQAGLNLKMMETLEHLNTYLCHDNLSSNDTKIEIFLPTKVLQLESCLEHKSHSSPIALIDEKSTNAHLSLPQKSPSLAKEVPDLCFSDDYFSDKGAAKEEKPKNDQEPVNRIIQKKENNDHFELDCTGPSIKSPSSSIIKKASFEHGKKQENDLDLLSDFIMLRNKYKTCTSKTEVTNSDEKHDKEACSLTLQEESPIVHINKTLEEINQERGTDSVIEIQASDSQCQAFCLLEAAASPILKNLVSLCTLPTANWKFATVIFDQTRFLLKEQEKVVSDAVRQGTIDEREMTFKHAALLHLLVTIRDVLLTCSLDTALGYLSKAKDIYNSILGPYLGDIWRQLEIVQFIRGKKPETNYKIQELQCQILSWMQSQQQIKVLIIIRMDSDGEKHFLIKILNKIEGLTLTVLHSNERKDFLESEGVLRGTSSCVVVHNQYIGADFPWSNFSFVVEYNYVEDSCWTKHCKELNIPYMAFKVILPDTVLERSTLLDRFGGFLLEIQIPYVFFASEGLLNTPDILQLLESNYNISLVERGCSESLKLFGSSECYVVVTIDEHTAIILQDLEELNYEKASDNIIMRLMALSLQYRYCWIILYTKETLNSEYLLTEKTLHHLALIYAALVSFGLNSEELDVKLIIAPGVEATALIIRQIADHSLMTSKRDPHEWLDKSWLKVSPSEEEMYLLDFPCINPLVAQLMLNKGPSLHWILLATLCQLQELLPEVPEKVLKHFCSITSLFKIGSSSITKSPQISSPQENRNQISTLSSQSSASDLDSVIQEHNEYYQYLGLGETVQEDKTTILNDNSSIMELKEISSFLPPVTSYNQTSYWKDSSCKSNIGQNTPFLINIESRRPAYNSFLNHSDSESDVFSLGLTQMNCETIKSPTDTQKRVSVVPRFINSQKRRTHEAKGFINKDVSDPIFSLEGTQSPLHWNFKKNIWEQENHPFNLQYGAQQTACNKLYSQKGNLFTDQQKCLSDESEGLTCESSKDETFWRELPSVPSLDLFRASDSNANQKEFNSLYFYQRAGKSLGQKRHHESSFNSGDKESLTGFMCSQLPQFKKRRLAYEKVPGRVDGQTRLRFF
human SHOC1 ΔF4 (aa1099-1444del): residues 1-1098 of Q5VXU9
human SHOC1 ΔF1 (aa1-288del): residues 289-1444 of Q5VXU9
human SHOC1 ΔF3 (aa577-1098del) (Q5VXU9, form named): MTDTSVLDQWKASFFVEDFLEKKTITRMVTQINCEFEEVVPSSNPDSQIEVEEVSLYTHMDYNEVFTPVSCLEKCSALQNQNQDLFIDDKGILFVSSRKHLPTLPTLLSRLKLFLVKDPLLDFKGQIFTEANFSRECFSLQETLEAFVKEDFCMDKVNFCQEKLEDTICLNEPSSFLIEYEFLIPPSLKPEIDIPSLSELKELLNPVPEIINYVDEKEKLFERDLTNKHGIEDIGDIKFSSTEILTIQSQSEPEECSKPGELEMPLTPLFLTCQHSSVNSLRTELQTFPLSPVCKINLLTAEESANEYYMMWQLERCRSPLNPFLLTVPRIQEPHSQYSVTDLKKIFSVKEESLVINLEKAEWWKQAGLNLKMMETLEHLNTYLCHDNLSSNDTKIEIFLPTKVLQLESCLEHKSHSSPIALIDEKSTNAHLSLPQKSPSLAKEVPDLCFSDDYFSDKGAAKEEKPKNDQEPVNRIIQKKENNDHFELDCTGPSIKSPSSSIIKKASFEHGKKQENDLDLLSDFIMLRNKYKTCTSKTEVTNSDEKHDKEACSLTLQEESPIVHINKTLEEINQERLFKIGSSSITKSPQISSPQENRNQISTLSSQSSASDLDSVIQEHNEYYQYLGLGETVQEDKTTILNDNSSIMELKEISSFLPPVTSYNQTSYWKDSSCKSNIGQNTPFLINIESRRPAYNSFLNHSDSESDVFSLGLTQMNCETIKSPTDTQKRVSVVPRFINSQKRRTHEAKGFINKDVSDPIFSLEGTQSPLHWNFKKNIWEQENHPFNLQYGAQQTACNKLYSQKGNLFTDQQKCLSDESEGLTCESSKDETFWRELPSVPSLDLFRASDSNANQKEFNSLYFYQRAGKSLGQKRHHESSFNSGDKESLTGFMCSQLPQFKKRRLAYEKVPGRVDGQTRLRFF
human SHOC1 ΔF2 (aa289-576del) (Q5VXU9, form named): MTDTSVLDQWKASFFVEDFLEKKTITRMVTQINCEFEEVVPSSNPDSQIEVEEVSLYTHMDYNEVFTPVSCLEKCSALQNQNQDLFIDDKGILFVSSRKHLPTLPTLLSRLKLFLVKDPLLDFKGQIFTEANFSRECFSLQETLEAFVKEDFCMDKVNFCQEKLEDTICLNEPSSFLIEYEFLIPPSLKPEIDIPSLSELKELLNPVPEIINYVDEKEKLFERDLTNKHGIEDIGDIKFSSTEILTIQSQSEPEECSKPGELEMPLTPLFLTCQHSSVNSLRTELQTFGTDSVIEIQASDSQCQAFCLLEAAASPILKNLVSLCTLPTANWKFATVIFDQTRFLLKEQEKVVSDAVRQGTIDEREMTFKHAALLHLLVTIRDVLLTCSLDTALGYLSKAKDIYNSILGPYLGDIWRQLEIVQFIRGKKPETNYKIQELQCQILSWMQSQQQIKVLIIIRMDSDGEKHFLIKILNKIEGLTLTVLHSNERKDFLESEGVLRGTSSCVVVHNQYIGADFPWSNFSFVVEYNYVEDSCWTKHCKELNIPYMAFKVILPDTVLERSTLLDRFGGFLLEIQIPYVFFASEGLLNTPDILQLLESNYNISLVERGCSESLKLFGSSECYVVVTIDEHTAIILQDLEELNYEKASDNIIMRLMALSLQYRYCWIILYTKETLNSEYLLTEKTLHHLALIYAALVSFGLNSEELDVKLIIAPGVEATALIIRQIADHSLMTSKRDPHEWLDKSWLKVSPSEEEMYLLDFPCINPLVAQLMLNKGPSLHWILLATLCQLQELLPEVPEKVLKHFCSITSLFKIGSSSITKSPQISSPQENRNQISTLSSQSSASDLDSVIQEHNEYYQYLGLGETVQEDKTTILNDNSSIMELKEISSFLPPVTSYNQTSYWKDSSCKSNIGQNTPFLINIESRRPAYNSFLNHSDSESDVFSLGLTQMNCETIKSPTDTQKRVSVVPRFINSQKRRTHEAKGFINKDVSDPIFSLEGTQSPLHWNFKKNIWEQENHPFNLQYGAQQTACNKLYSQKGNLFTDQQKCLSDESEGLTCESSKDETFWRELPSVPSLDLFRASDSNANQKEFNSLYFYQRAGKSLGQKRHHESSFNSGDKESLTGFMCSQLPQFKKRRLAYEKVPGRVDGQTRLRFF

What was measured:
[1] = biological target: human SHOC1 ΔF3 (aa577-1098del) (human) (UniProt Q5VXU9); assay: co-IP; tagged proteins co-expressed in pairs in HEK293T; immunoprecipitated from cell lysates by tag-specific antibodies, Western blot; IP lysis buffer 20 mM HEPES, 150 mM NaCl, 0.5% NP-40, 1 mM DTT, pH 7.3; 4°C (Fig. 1A, B; Supplementary Fig. S2C, D)
[2] = biological target: human SHOC1 ΔF4 (aa1099-1444del) (human) (UniProt Q5VXU9); assay: as above
[3] = biological target: human SHOC1 ΔF1 (aa1-288del) (human) (UniProt Q5VXU9); assay: as above
[4] = biological target: human SHOC1 ΔF2 (aa289-576del) (human) (UniProt Q5VXU9); assay: as above
[5] = biological target: human FLAG-tagged SHOC1 (human) (UniProt Q5VXU9); assay: as above
[6] = biological target: mouse SHOC1 ΔF2 (aa313-625del) (mouse) (UniProt A2ALV5); assay: as above
[7] = biological target: mouse SHOC1 ΔF4 (aa1155-1482del) (mouse) (UniProt A2ALV5); assay: as above
[8] = biological target: mouse SHOC1 ΔF3 (aa626-1154del) (mouse) (UniProt A2ALV5); assay: as above
[9] = biological target: human SHOC1-nVenus (human) (UniProt Q5VXU9); assay: split reporter; Bi-FC with Venus fragments VN210 and VC210 fused to the two proteins, transfected into HeLa cells, fluorescence imaging

Measured: binding

B1: human HA-tagged M1AP (protein, UniProt Q8TC57 1-530)
chain: MHPGRTTGKGPSTHTQIDQQPPRLLIVHIALPSWADICTNLCEALQNFFSLACSLMGPSRMSLFSLYMVQDQHECILPFVQVKGNFARLQTCISELRMLQREGCFRSQGASLRLAVEDGLQQFKQYSRHVTTRAALTYTSLEITILTSQPGKEVVKQLEEGLKDTDLARVRRFQVVEVTKGILEHVDSASPVEDTSNDESSILGTDIDLQTIDNDIVSMEIFFKAWLHNSGTDQEQIHLLLSSQCFSNISRPRDNPMCLKCDLQERLLCPSLLAGTADGSLRMDDPKGDFITLYQMASQSSASHYKLQVIKALKSSGLCESLTYGLPFILRPTSCWQLDWDELETNQQHFHALCHSLLKREWLLLAKGEPPGPGHSQRIPASTFYVIMPSHSLTLLVKAVATRELMLPSTFPLLPEDPHDDSLKNVESMLDSLELEPTYNPLHVQSHLYSHLSSIYAKPQGRLHPHWESRAPRKHPCKTGQLQTNRARATVAPLPMTPVPGRASKMPAASKSSSDAFFLPSEWEKDPSRP
binds: [1] | [2] | [3] | [4] | [5]

B2: human HA-tagged REDIC1 (protein, UniProt Q86WS4 1-652)
chain: MNWVGGSRSRVLIKQERRKQKEYFEKHRLKSKMKSLGVLSPVKNSAVSLDILNLYMVNQISCKKKIPETVRKPTHVNMNRDIKMPLRKHNLELTMSPHCVPSKLCLDDTETNVNCQRLSSKEDLGPVQSQGMDSYSMLHPQFSKIENCSFTPSSFSVELPSNRHISKLNFTSGIAPTPQKLAYEKKQNDQRSTVNCSDSLLSKLNKSQDVFSPSHKTTRFGTLFERLNSLGNRNLLTKSPAVIMDEDCRSTDEIRQSDYITEKHSIQHIWGKNGKEVSNFLEDVNQSTPNLLSENCDSFVSQNMINVLNIDEQRIKKTFNKCDYDSMGDTCVVTSSDKNHVTDRCIRNIFTVPELTFSNSTLNKTSYPEKCQPNKKYQREYNKNERNDLSTSFENDYYPSSSERKEKFENDYQEKTPQKSIQKYPANSMGNIPSEELHSKQSWDFGLDEILMEEGGIYSLKSKRISTKKISLDSAQSSRSTSYSPRPTDSCFSSSSDLPSEDEDQISQQIEDSNRMTIKTKEKMNNFYVERMAKLSGDRIVKNDDKIHKQNENFYQFSVKNNTDQFPQLQCNSAHILQNKTNDNCVLQAARCDAGIQTESESVMEEKLDVAIQCDLISKCTCRSDVSLCNLERCSGNIKADTTGGQEIHKNN
binds: [1] | [2] | [3] | [4] | [5]

B3: mouse HA-tagged M1AP (protein, UniProt Q9Z0E1 1-529)
chain: MNRRKTTSRGTSAAMKISHQPPRLLIVNIAVPSWVDICPNLCEALQNFFSIACSLMGPSRMSLFSLYTVQNQHECVLPFVQVRGNFIRLQACISELRMLQVEGCHRPPHALLPLAIEDGLQQFKQYSSHMASSAAQPWTSLEITVLTSRPGKEVVKELEEGLKDINLLSVRRLQVAEVTKGIQERSDSPSPTEEPSNDESSILEADIVLETLDNDVVSMEVFFKAWLHNSETDQENIHLLLTPQSLPPPSRAKDHPICLKCDLQERFLSPSLLPGTADGVSRIDDPKGDISTLYQMASLASASPYKLQVVKALKSSGICESLTYGLPFILRPTSCWQLDWDELETNQQHFHALCHCLLKRDWLLLARGEPLIHKHNQSLPACSFYVITPSHSLTLLVKLVATRELMLPGFFPLLSEDPPEDSLKIIESTLDSLDLGLTYNPLHVGSHLYSHLSSAHAKPQGRLYTSCASRGLRKGGQLQTNRVRAAVVPLPVAPAPRRALKMTAASKASSAAFLPSDSEEGEEERPSHT
binds: [6] | [7] | [8]

B4: mouse HA-tagged REDIC1 (protein, UniProt A0A087WRU1 1-652)
chain: MNWVGGSRSRVLIKQERRKQKEYFERNKLKSKLKLLGVVSPVKKPSVSLDLLNLYVVNQISSMKENSETMKRPTHVNMTRDLKVPLRKHDLELPMSPHCVPSKLCIDDMEDSVPYQRIYSKEETGPVQSSQDMKSYRMFNETGNCSYIPPSFPEELRSNRHIRSQHSTPRIGPSPQQFVYENPHSGQFSNGKFPESLFSKLNKHQHVFSSSQTTAEFEAPYKRTNSSETGDFLTKRSMIMGEDCRSLYERRQPDFAMEKPLVQQIYANNGEEFSNFLEDVIHPTQRHLPDNHNSFVSHSMIDLLSKDQPGRRATFTKCGYDSLSDTHVVSSDESHSSSGLINGEFTVPQATSPNFPFNTSYTETCQPNRPCQEYNSNEINEFRRSFEKDCYSIGCGRKGKIESDKQLKELQRNARKHPVYTMADIPLEELHCKQSCDFDQNEIPMERRGMCPLKGQPMSTEKIYLESSQSSQSASYSPRPTESTFSSSTDLISEDEDQIQQQTEDSNKKATETTGNCCLEKMENHFDDITVKDDATAHKQNHKCLQSSEKNNADAFPESQCNSEHTVQNKSTDNCVLQAGRCDVGVQTEEAPLVGNTADVAVQCTIITRCSCMSSPVLIREKESSHPEAGSCTEDRTADTTGGQETPTSNSL
binds: [6] | [7] | [8]

B5: human TEX11-cVenus (protein, UniProt Q8IYF3 1-940)
chain: MISAHCNLRLLCSSDSSASASQVAGTTEVVENLVTNDNSPNIPEAIDRLFSDIANINRESMAEITDIQIEEMAVNLWNWALTIGGGWLVNEEQKIRLHYVACKLLSMCEASFASEQSIQRLIMMNMRIGKEWLDAGNFLIADECFQAAVASLEQLYVKLIQRSSPEADLTMEKITVESDHFRVLSYQAESAVAQGDFQRASMCVLQCKDMLMRLPQMTSSLHHLCYNFGVETQKNNKYEESSFWLSQSYDIGKMDKKSTGPEMLAKVLRLLATNYLDWDDTKYYDKALNAVNLANKEHLSSPGLFLKMKILLKGETSNEELLEAVMEILHLDMPLDFCLNIAKLLMDHERESVGFHFLTIIHERFKSSENIGKVLILHTDMLLQRKEELLAKEKIEEIFLAHQTGRQLTAESMNWLHNILWRQAASSFEVQNYTDALQWYYYSLRFYSTDEMDLDFTKLQRNMACCYLNLQQLDKAKEAVAEAERHDPRNVFTQFYIFKIAVIEGNSERALQAIITLENILTDEESEDNDLVAERGSPTMLLSLAAQFALENGQQIVAEKALEYLAQHSEDQEQVLTAVKCLLRFLLPKIAEMPESEDKKKEMDRLLTCLNRAFVKLSQPFGEEALSLESRANEAQWFRKTAWNLAVQCDKDPVMMREFFILSYKMSQFCPSDQVILIARKTCLLMAVAVDLEQGRKASTAFEQTMFLSRALEEIQTCNDIHNFLKQTGTFSNDSCEKLLLLYEFEVRAKLNDPLLESFLESVWELPHLETKTFETIAIIAMEKPAHYPLIALKALKKALLLYKKEEPIDISQYSKCMHNLVNLSVPDGASNVELCPLEEVWGYFEDALSHISRTKDYPEMEILWLMVKSWNTGVLMFSRSKYASAEKWCGLALRFLNHLTSFKESYETQMNMLYSQLVEALSNNKGPVFHEHGYWSKSD
binds: [9]
